Literature values, collected in patent publication US20220082565A1, “THE FGF19-CHOLESTYRAMINE (F-CME) TEST AS A TWO-STAGE METHOD FOR ROUTINE CANCER SCREENING” (UNIVERSITY OF CENTRAL FLORIDA RESEARCH FOUNDATION, INC., priority 2020, published 2022).
For at least one compound, name, drawing or mass did not settle the structure.

Test system: FGF19 transcripts
Conditions: physiological concentrations of bile acids, explants of ileal mucosa

## CC[C@H]1[C@@H](O)[C@@H]2[C@H](CC[C@]3(C)[C@@H]([C@H](C)CCC(=O)O)CC[C@@H]23)[C@@]2(C)CC[C@@H](O)C[C@@H]12 [obeticholic acid]
  stimulation of human FGF19 transcripts: approximately 300 fold
